Some of the results follow.
Legend:
Assay in all cases: log2 fold change, soluble protein after heating vs DMSO (PISA); higher = thermal stabilisation; K562 lysate, 10 uM; active = over 0.2 and 3.5 SD of the protein, either way, in both replicates (recomputed)
[1] = compound: C1=CC=C(C=C1)C2=NC(=C(N2)C3=CC=NC=C3)C4=CC(=C(C=C4)Cl)O
In short: (§1)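 Soluble protein was defined as the supernatant remaining after 21,000xg for 90 min, following pooling of heated aliquots and adjustment to 0.5% NP-40 at 4°C. Before that, crude K562 extract at 1 mg/mL protein in PBS pH 7.4 with 1 mM MgCl2 was treated with 10 μM compound for 30 min and heated for 3 min across 48°C-58°C. Quantification used TMTpro 16plex LC-MS/MS with channel sums equalised, and values are log-two fold changes in thermal stability relative to solvent controls from duplicates.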

Amino acid sequences for entries named in this document (tags omitted). A change or cut given only in a name is not applied to a line headed by its entry.
UniProt O94901, whole entry, looked up: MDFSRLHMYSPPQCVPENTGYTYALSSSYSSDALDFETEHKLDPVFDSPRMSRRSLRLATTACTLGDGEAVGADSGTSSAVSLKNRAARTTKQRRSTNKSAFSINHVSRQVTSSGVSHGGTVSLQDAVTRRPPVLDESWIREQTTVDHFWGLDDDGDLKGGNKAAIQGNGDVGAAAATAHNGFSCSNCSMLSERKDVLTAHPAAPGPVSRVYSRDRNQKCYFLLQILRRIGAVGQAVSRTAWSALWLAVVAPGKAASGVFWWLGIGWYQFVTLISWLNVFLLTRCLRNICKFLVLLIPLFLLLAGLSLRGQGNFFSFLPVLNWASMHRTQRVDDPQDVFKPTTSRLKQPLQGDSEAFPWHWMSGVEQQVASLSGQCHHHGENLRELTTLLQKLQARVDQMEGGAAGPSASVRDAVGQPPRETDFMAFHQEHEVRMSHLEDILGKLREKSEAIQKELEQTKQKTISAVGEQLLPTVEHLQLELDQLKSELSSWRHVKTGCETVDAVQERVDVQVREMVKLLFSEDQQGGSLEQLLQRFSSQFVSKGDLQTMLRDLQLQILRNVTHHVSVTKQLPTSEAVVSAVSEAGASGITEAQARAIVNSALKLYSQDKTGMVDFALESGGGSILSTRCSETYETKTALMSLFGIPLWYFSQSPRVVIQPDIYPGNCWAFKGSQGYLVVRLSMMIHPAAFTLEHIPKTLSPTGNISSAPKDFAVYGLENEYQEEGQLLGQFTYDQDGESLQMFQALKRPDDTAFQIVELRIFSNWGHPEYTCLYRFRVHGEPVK
UniProt P49842: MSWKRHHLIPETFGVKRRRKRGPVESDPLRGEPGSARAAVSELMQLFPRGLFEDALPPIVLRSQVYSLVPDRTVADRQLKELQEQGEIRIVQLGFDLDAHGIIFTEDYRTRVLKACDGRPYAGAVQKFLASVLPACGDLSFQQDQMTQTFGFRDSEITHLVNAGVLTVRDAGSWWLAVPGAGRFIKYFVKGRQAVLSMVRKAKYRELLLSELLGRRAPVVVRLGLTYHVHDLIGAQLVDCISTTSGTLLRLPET
UniProt O94804: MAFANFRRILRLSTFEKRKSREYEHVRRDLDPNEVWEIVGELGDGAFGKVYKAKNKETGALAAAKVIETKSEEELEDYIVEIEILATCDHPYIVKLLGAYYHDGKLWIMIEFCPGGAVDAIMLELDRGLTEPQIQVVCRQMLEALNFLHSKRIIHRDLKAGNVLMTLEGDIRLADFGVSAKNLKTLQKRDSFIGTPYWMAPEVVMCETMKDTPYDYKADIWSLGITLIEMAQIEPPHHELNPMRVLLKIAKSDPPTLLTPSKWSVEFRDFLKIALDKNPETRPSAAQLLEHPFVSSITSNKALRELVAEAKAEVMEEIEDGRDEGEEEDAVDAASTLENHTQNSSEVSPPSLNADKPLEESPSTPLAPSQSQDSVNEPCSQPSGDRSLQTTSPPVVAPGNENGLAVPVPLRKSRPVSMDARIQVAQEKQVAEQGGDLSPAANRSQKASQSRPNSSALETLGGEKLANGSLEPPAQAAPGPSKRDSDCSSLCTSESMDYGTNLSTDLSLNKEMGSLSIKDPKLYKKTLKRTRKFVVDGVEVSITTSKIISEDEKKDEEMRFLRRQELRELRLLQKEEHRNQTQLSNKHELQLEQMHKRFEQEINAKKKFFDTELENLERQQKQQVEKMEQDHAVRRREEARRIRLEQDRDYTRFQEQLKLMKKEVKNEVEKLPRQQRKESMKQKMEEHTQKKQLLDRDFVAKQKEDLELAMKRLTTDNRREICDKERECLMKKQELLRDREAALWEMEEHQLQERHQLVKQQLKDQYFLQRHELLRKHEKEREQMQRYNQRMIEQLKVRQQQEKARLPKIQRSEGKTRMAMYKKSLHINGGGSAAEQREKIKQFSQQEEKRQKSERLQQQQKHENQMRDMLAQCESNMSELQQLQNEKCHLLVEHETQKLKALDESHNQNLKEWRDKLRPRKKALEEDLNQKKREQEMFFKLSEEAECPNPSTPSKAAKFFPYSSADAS
UniProt Q9Y2H1: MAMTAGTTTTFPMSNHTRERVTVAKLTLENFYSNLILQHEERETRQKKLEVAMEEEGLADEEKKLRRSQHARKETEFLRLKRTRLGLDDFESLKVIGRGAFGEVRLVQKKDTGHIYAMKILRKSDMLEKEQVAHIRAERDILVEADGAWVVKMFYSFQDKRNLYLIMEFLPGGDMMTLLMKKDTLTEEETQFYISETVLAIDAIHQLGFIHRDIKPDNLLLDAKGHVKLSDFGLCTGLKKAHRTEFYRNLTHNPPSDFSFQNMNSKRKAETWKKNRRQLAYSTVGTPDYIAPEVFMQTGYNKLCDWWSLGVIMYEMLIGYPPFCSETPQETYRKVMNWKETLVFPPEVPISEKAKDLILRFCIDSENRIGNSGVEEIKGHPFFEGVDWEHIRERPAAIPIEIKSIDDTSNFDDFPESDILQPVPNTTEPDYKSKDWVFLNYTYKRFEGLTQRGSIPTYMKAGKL
UniProt Q9UMX1: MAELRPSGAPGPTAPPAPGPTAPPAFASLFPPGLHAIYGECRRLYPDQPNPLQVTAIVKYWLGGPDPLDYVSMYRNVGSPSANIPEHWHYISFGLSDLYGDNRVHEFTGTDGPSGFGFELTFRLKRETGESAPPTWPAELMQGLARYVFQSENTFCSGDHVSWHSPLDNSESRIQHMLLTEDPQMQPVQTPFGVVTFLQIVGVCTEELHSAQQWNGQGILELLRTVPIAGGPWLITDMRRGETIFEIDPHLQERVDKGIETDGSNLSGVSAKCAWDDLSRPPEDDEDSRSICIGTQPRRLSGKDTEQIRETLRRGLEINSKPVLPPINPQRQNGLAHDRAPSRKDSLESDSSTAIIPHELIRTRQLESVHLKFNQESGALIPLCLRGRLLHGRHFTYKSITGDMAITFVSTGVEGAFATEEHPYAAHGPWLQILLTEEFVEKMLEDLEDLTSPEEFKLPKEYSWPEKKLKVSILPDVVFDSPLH
UniProt Q8N300: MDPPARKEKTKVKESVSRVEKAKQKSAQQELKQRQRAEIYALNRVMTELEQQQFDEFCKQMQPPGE
UniProt O43761: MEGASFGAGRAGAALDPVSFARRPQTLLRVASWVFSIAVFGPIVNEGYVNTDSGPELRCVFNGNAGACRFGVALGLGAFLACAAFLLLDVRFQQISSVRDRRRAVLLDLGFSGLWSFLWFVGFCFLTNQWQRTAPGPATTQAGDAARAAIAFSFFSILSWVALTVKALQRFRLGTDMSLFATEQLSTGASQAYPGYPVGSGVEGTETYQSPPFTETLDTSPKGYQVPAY
UniProt Q15572: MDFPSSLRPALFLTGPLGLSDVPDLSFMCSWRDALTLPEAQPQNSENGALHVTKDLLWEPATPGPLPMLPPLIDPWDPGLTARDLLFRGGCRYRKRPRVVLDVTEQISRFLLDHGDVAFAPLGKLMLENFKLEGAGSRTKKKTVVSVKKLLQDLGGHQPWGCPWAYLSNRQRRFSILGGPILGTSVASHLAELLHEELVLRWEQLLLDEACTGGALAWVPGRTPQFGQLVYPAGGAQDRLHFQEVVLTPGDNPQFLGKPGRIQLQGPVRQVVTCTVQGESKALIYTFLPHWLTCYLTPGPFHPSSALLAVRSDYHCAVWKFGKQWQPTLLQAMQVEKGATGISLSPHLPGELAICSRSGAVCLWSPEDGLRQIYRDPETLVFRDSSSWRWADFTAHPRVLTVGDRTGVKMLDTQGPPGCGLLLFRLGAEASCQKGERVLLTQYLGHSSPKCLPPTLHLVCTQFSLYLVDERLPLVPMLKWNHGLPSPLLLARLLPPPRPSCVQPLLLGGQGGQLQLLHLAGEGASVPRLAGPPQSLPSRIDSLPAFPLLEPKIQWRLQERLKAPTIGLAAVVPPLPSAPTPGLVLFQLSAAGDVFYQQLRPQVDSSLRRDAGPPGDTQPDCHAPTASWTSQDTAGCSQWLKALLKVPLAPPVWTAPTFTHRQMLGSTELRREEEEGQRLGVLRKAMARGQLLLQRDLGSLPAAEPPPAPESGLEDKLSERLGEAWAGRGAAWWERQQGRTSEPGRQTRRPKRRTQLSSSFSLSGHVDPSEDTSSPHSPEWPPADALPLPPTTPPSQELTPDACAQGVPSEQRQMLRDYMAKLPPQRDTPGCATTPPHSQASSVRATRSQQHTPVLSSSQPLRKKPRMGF

IRAK-1-4 Inhibitor I = compound: C1COCCN1CCN2C3=CC=CC=C3N=C2NC(=O)C4=CC(=CC=C4)[N+](=O)[O-] [IRAK-1-4 Inhibitor I]
In short: as §1

ralimetinib = compound: CC(C)(C)Cn1c(N)nc2ccc(-c3[nH]c(C(C)(C)C)nc3-c3ccc(F)cc3)nc21 [ralimetinib]
In short: as §1

[2] = compound: CC(C)(O)CC(=O)NCCn1ccc2ncnc(Nc3ccc(Oc4cccc(C(F)(F)F)c4)c(Cl)c3)c21
In short: as §1

[3] = compound: CC1=C(C=C(C=C1)NC(=O)C2=CC(=CC=C2)N(C)C)NC(=O)C3=CC=C(C=C3)O
In short: as §1

[4] = compound: CC1=C(C(CC(=O)N1)C2=CC=C(C=C2)C(F)(F)F)C(=O)NC3=C(C=C4C(=C3)C=NN4)F
In short: as §1

[5] = compound: CC1=C(C2=C(C=C1)C(=O)C3=CC=CC=C3N2CCCN)C
In short: as §1

[6] = compound: CC1=C(C=C(C=C1)NC(=O)C2=CC(=CC=C2)C(C)(C)C#N)NC3=CC4=C(C=C3)N=CN(C4=O)C
In short: as §1

erlotinib = compound: C#Cc1cccc(Nc2ncnc3cc(OCCOC)c(OCCOC)cc23)c1 [erlotinib]
In short: as §1

[7] = compound: C1=CC(=CC=C1C2=NC3=C(N2)C=C(C=C3)C(=O)N)OC4=CC=C(C=C4)Cl
In short: as §1

[8] = compound: C1=CC2=NC=CN=C2C=C1/C=C/3\C(=O)NC(=O)S3
In short: as §1

ibrutinib = compound: C=CC(=O)N1CCC[C@@H](n2nc(-c3ccc(Oc4ccccc4)cc3)c3c(N)ncnc32)C1 [ibrutinib]
In short: as §1

[9] = compound: CC(C)C1=C2N=C(C=C(N2N=C1)NCC3=CC=CC=C3)NCCCCCCN
In short: as §1

[10] = compound: C1CCN(C1)C(=O)NC2=CC=CC(=C2)NC3=NC=C(C(=N3)NCCC4=CN=CN4)Br
In short: as §1

[11] = compound: C1CN(CCC1(CC2=CC=C(C=C2)Cl)N)C3=NC=NC4=C3C=CN4
In short: as §1

[12] = compound: C/C(=N\NC(=O)C1=CC(=CC=C1)S(=O)(=O)N2CCOCC2)/C3=C(C=CC(=C3)Cl)O
In short: as §1

[13] = compound: C1=CC2=C(C=CC(=C2)/C=C\3/C(=O)NC(=NCC4=CC=CS4)S3)N=C1
In short: as §1

[14] = compound: C1=CC=C2C(=C1)C3=NNC4=CC=CC(=C43)C2=O
In short: as §1

[15] = compound: CC(=O)c1cnc2ccc(-c3cc(Cl)c(O)c(Cl)c3)nc2c1N[C@H]1CC[C@H](CN(C)C)CC1
In short: as §1

[16] = compound: CC1=CC=C(C=C1)SC2=C3C=C(SC3=CN=C2)C(=O)N
In short: as §1

Measured: log2 fold change

SUN1 isoform 9 (UniProt O94901)
inactive: [1] 0.074 | IRAK-1-4 Inhibitor I 0.194 | ralimetinib 0.106 | [2] -0.258 | [3] 0.028

STK19 (UniProt P49842)
inactive: [4] -0.01 | [5] 0.002 | [6] -0.05

STK10 (UniProt O94804)
inactive: erlotinib 0.121 | [7] 0.041 | [8] -0.15 | [1] 0.083 | IRAK-1-4 Inhibitor I 0.122 | ibrutinib -0.047 | ralimetinib -0.191 | [2] -0.298 | [9] 0.118 | [5] -0.016 | [6] 0.379 | [3] 0.084

STK38L (UniProt Q9Y2H1)
inactive: erlotinib -0.001 | [7] -0.163 | [1] 0.113 | [10] -0.027 | [11] 0.11 | IRAK-1-4 Inhibitor I 0.011 | ralimetinib -0.069 | [2] 0.021 | [9] -0.019 | [4] -0.024 | [5] -0.019 | [6] 0 | [3] 0.056

SUFU (UniProt Q9UMX1)
inactive: [12] -0.222 | [13] -0.02 | [1] 0.014 | [14] 0.164 | IRAK-1-4 Inhibitor I 0.06 | [15] -0.034 | ralimetinib -0.083 | [2] -0.045 | [6] -0.022 | [3] -0.067 | [16] 0.025

2 successive records out of the list so far:
STK10 (UniProt O94804)
inactive: erlotinib 0.121 | [7] 0.041 | [8] -0.15 | [1] 0.083 | IRAK-1-4 Inhibitor I 0.122 | ibrutinib -0.047 | ralimetinib -0.191 | [2] -0.298 | [9] 0.118 | [5] -0.016 | [6] 0.379 | [3] 0.084

STK38L (UniProt Q9Y2H1)
inactive: erlotinib -0.001 | [7] -0.163 | [1] 0.113 | [10] -0.027 | [11] 0.11 | IRAK-1-4 Inhibitor I 0.011 | ralimetinib -0.069 | [2] 0.021 | [9] -0.019 | [4] -0.024 | [5] -0.019 | [6] 0 | [3] 0.056

(continued)

SVBP (UniProt Q8N300)
inactive: erlotinib 0.017 | [7] 0.134 | [1] -0.05 | [10] -0.031 | [11] 0.088 | IRAK-1-4 Inhibitor I 0.148 | ralimetinib 0.022 | [2] -0.034 | [9] -0.038 | [4] -0.055 | [6] 0.033 | [3] 0.058

SYNGR3 (UniProt O43761)
inactive: [8] -0.073 | ibrutinib 0.059

TAF1C (UniProt Q15572)
inactive: [12] 0.1 | [13] 0 | [8] -0.055 | [1] 0 | [14] -0.109 | [10] 0.105 | [11] -0.074 | IRAK-1-4 Inhibitor I -0.14 | ibrutinib 0.052 | ralimetinib 0.088 | [2] -0.01 | [4] 0.096 | [5] -0.008 | [6] -0.035 | [3] -0.02

— the supplement of paper PMC10849652
